Experimental data as given in PMC4103873.
These are yes or no findings as the source states them, for the method shown. Binding seen in cells or lysates may run through a third protein. Some binding calls cover weakened binding; strength is not graded here.

Protein sequences, listed by entry. Tags and fused reporters are not part of them.
UniProt Q9UKV8: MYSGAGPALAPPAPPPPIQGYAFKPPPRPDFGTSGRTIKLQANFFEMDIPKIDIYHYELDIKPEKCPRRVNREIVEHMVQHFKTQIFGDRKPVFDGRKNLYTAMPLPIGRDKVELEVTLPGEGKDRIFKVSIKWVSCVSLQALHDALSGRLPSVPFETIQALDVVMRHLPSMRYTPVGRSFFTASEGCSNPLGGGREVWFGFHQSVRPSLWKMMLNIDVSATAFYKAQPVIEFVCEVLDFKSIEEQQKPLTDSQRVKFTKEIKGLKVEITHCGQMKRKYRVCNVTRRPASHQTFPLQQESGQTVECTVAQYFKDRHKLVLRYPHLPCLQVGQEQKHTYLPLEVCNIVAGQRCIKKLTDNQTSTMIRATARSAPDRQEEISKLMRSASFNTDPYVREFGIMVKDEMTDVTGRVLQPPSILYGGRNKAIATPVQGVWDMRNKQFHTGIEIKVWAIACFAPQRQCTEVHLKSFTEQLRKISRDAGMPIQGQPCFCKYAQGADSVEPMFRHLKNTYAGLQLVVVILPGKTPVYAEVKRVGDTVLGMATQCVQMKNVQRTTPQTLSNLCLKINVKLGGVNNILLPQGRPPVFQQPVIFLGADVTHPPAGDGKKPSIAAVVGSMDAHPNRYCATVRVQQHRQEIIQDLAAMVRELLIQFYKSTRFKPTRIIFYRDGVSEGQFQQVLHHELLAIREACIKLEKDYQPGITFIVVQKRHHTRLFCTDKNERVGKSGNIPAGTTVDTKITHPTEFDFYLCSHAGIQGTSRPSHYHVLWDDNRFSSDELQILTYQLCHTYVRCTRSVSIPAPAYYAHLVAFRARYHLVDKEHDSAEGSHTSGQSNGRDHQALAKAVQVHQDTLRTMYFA
UniProt P63279: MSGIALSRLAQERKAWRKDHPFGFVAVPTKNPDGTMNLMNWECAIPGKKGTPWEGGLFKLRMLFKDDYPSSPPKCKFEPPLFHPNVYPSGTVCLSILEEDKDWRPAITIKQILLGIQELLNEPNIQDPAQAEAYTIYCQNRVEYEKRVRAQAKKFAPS

Biological target: HA-tagged human Ago2 (human) (UniProt Q9UKV8)
Assay: co-IP; HeLa cells co-transfected with HA-Ago2 and Ubc9; lysates immunoprecipitated with mouse anti-HA antibody or control IgG, probed with anti-HA and anti-Ubc9

binding: binds
Substance: Ubc9 (from UniProt P63279 1-158) (enzyme)
